Assay: soluble on expression in E. coli; label from the status in PepcDB or PDB records

Sequence	soluble on expression in E. coli
MTPEKHRARKRQAWLWEEDKNLRSGVRKYGEGNWSKILLHYKFNNRTSVMLKDRWRTMKKLKLISSDSED	soluble
PTGGGKTLASMAFALEHALKHDKKRIIVVIPYTSIIEQTAAVYREVFGDDAVLEHHSNLDPSRETPASRLATENWDAPIIVTTNVQFFESLFAARSSACRKLHNIVNSVVVLDEAQMLPTDFLQPIVSVIKMLSAHFRTSVVLCTATQP	not soluble
RKETYSSYIYKVLKQTHPDTGISQKSMSILNSFVNDIFERIATEASKLAAYNKKSTISAREIQTAVRLILPGELAKHAVSEGTRAVTKYSSSTQAQSSSARAGLQFPVGRIKRYLKRHATGRTRVGSKAAIYLTAVLEYLTAEVLELAGNAAKDLKVKRITPRHLQLAIRGDDELDSLIRATIASGGVLPHI	soluble
SAGSSIAMKTWELSNSMQEVQSIDEIYKYDKKQQQEILAAKPWTKDHHYFKYCKLSALALLKMVMHARSGGNLGVMGLMLGKVDGETMIIMDSFALPVEGTETRVNAQAAAYEYMAAYIENAKQVGRLENAIGWYHSHPGYGCWLSGIDVSTQMLNQQFQEPFVAVVIDPTRTISAGKVNLGAFRTYPKGYKPPDEGPSEYQTIPLNKIEDFGVHCKQYYALEVSYFKSSLDRKLLELLWNKYWVNTLSSSSLLTNADYTTGQVFDLSEKLEQAEAQLGRGSFMLGLDTHDRKSEDKLAKATRDSCKTTIEAIHGLMSQVIKDKLFNQVNTSAN	soluble
TDVAARGIDINDLTHVVNYDIPQNPESYVHRIGRTGRAGKQGYAVTFVEPSEFRKFKYIQKIAKTEIRKEEVPDVKDIIGAKKRKIVSGIKEVLESGKYNDCENMAADLLEDADPQEVLSAVLKYALKDELSESNYK	not soluble

— the DeepSol protein solubility set
